Reference: publication PMC11079228

B1: CSDE1 (protein, UniProt P18395 1-798)
chain: MSFDPNLLHNNGHNGYPNGTSAALRETGVIEKLLTSYGFIQCSERQARLFFHCSQYNGNLQDLKVGDDVEFEVSSDRRTGKPIAIKLVKIKPEIHPEERMNGQVVCAVPHNLESKSPAAPGQSPTGSVCYERNGEVFYLTYTSEDVEGNVQLETGDKINFVIDNNKHTGAVSARNIMLLKKKQARYQGVVCAMKEAFGFIERGDVVKEIFFHYSEFKGDLETLQPGDDVEFTIKDRNGKEVATDVRLLPQGTVIFEDISIEHFEGTVTKVIPKVPSKNQNDPLPGRIKVDFVIPKELPFGDKDTKSKVTLLEGDHVRFNISTDRRDKLERATNIEVLSNTFQFTNEAREMGVIAAMRDGFGFIKCVDRDARMFFHFSEILDGNQLHIADEVEFTVVPDMLSAQRNHAIRIKKLPKGTVSFHSHSDHRFLGTVEKEATFSNPKTTSPNKGKDKEAEDGIIAYDDCGVKLTIAFQAKDVEGSTSPQIGDKVEFSISDKQRPGQQIATCVRLLGRNSNSKRLLGYVATLKDNFGFIETANHDKEIFFHYSEFSGDVDSLELGDMVEYSLSKGKGNKVSAEKVNKTHSVNGITEEANPTIYSGKVIRPLRGVDPTQIEYQGMIEIVEEGDMKGEVYPFGIVGMANKGDCLQKGESVKFQLCVLGQNAQTMAYNITPLRRATVECVKDQFGFINYEVGDSKKLFFHVKEVQDGIELQAGDEVEFSVILNQRTGKCSACNVWRVCEGPKAVAAPRPDRLVNRLKNITLDDASAPRLMVLRQPRGPDNSMGFGAERKIRQAGVID
B2: HNRNPM (protein, UniProt Q62826 1-690)
chain: MAAGVEAAAEVAATEPKMEEESGAPCVPSGNGAPVPKGEERPTQNEKRKEKNIKRGGNRFEPYANPTKRYRAFITNIPFDVKWQSLKDLVKEKVGEVTYVELLMDAEGKSRGCAVVEFKMEESMKKAAEVLNKHSLSGRPLKVKEDPDGEHARRAMQKAGRLGSTVFVANLDYKVGWKKLKEVFSMAGVVVRADILEDKDGKSRGIGTVTFEQSIEAVQAISMFNGQLLFDRPMHVKMDERALPKGDFFPPERPQQLPHGLGGIGMGLGPGGQPIDANHLNKGIGMGNLGPAGMGMEGIGFGINKIGGMEGPFGGGMENMGRFGSGMNMGRINEILSNALKRGEIIAKQGGSGAGGSVPGIERMGPGIDRISGAGMERMGAGLGHGMDRVGSEIERMGLVMDRMGSVERMGSGIERMGPLGLDHMASSIERMGQTMERIGSGVERMGAGMGFGLERMAAPIDRVGQTIERMGSGVERMGPAIERMGLSMDRMVPTGMGAGLERMGPVMDRMATGLERMGANNLERMGLERMGANSLERMGLERMGANSLERMGPAMGPALGAGIERMGLAMGGAGGASFDRTIEMERGNFGGSFAGSFGGAGGHAPGVARKACQIFVRNLPFDFTWKMLKDKFNECGHVLYADIKMENGKSKGCGVVKFESPEVAERACRMMNGMKLSGREIDVRIDRNA
B3: DAB2 (protein, UniProt O88797 1-768)
chain: MSNEVETSTTNGQPDQQAAPKAPSKKEKKKGSEKTDEYLLARFKGDGVKYKAKLIGIDDVPDARGDKMSQDSMMKLKGMAAAGRSQGQHKQRIWVNISLSGIKIIDEKTGVIEHEHPVNKISFIARDVTDNRAFGYVCGGEGQHQFFAIKTGQQAEPLVVDLKDLFQVIYNVKKKEEEKKKVEEANKAEENGSEALMTLDDQANKLKLGVDQMDLFGDMSTPPDLNNPTESRDILLVDLNSEIDTNQNSLRENPFLTNGVTSCSLPRPKPQASFLPESAFSANLNFFPTPNPDPFRDDPFAQPDQSAPSSFHSLTSADQKKANPGSLSTPQSKGPLNGDTDYFGQQFDQISNRTGKQEAQGGPWPYPSSQTQQAVRTQNGVSEKEQNGFHIKSSPNPFVGSPPKGLSVPNGVKQDLESSVQSSAHDSIAIIPPPQSTKPGRGRRTAKSSANDLLASDIFASEPPGQMSPTGQPAVPQANFMDLFKTSAPAPMGSGPLVGLGTVPVTPPQAGPWTPVVFTPSTTVVPGAIISGQPSGFGQPLVFGTTPAVQVWNQPSSFATAASPPPPAVWCPTTSVAPNTWSSTSPLGNPFQSSNIFPPSTISTQSFPQPMMSSVLVTPPQPPPRNGPLKDTLSDAFTGLDPLGDKEVKEVKEMFKDFQLRQPPLVPSRKGETPSSGTSSAFSSYFNNKVGIPQEHVDHDDFDANQLLNKINEPPKPAPRQGVLSGTKSADNSLENPFSKGFSSTNPSVVSQPASSDAHRSPFGNPFA
B4: PSMF1 (protein, UniProt Q5XIU5 1-271)
chain: MAGLEVLFASAAPAMTCPQDALVCFLHWEVVTNGYYGLGTGDQPDPNDKKSELLPAEWNSNKELYALRYESKDGARKLLLKAVSVENGMIINVLEHGTQQVADLTLNLDDYIDAEDLSDFHRTYKNSEELRSRIRSGIITPIHEQWEKVRLSSPPREFPPATAREVDPLRISSHHPHTSRQPTWRDPLSPFAVGGEDLDPFGCQRGGMIVDPLRSGFPRALIDPSSGLPNRLPPGAVPPGARFDPFGPIGTSPSGPNPDHLPPPGYDDMYL
B5: HPRT1 (protein, UniProt P27605 1-218)
chain: MSTLSPSVVISDDEPGYDLDLFCIPNHYAEDLEKVFIPHGLIMDRTERLARDVMKEMGGHHIVALCVLKGGYKFFADLLDYIKALNRNSDRSIPMTVDFIRLKSYCNDQSTGDIKVIGGDDLSTLTGKNVLIVEDIIDTGKTMQTLLSLVKQYSPKMVKVASLLVKRTSRSVGYRPDFVGFEIPDKFVVGYALDYNEHFRDLNHVCVISESGKAKYKA
B6: SH3GLB1 (protein, UniProt Q6AYE2 1-365)
chain: MNIMDFNVKKLAADAGTFLSRAVQFTEEKLGQAEKTELDAHLENLLSKAECTKVWTEKIMKQTEVLLQPNPNARIEEFVYEKLDRKAPSRINNPELLGQYMIDAGTEFGPGTAYGNALIKCGETQKRIGTADRELIQTSALNFLTPLRNFIEGDYKTIAKERKLLQNKRLDLDAAKTRLKKAKAAETKSSSEQELRITQSEFDRQAEITRLLLEGISSTHAHHLRCLNDFVEAQMTYYAQCYQYMLDLQKQLGSFPSNYVSNNNQTSGTPVPYTLSNTIGPSAVASTGSLVITCPPNLSDLKDSSSTRKARVLYDYDAANSTELSLLADEVITVFSVVGMDSDWLMGERGNQKGKVPITYLELLN
B7: LGMN (protein, UniProt Q9R0J8 18-325)
chain: VHIGVDDPEDGGKHWVVIVAGSNGWYNYRHQADACHAYQIIHRNGIPDEQIIVMMYDDIANNEENPTPGVVINRPNGTDVYKGVPKDYTGEDVTPENFLAVLRGDEEAVKGKGSGKVLKSGPRDHVFVYFTDHGATGILVFPNEDLHVKDLNKTIRYMYEHKMYQKMVFYIEACESGSMMNHLPDDIDVYATTAANPNESSYACYYDEERSTYLGDWYSVNWMEDSDVEDLTKETLHKQYHLVKSHTNTSHVMQYGNKSISTMKVMQFQGMKHRASSPISLPPVTHLDLTPSPDVPLTILKRKLLRTN

target: Huntingtin-interacting protein 1 (rat) (rat (endogenous in rat FLS)); assay: affinity purification with mass spectrometry; rabbit anti-rat-HIP1 antibody (20 μg per sample) on Dynabeads M-270 Epoxy; total lysates of rat FLS (one DA and one R6 cell line, each in triplicate), starved 24 h, then PDGFβ 100 ng/mL 30 min; lysis in water with protease and phosphatase inhibitors by three freeze-thaw cycles; elution with 8 M urea, LysC and trypsin, nano-LC-MS/MS, label-free quantitation

binding, binds:
B1, B2, B3, B4, B5, B6, B7

These are yes or no findings as the source states them, for the method shown. In cells and extracts the contact can be indirect. These calls come from enrichment with a bait or labelling near it, and not all partners need be listed.
